The text below walks through data of publication PMC5688128, “Structural basis for tRNA-dependent cysteine biosynthesis” (Nature Communications, 2017).

These are yes or no findings as the source states them, for the method shown. Some entries that bind do so weakly or less than the wild type.

Experiment [1] has as its target T1, O-phosphoseryl-tRNA synthetase (SepRS), Methanocaldococcus jannaschii (Methanocaldococcus jannaschii) (UniProt Q59054).
T1 sequence: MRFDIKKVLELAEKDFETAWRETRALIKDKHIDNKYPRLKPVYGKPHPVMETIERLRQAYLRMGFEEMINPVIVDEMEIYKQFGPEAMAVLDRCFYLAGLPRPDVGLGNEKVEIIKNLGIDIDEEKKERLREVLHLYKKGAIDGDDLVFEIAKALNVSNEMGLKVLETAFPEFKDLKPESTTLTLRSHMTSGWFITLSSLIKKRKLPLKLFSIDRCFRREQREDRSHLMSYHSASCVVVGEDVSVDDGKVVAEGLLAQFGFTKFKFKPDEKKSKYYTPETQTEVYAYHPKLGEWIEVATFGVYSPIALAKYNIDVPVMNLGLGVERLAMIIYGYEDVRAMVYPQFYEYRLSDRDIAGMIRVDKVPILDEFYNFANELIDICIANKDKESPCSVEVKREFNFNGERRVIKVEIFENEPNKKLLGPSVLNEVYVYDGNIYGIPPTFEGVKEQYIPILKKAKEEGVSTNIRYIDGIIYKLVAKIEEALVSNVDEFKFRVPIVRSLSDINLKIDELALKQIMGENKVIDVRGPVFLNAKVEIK
In words: condition: 100 µM SepRS variants, 400 µM SepCysE variants; SEC; 100 µM SepRS variants incubated with 400 µM SepCysE variants; Superdex 200 10/300 GL; 20 mM HEPES-NaOH pH 7.5, 300 mM NaCl, 10% glycerol; both purified.

The target of experiment [2] is T2, Sep-tRNA:Cys-tRNA synthase (SepCysS), Methanocaldococcus jannaschii (Methanocaldococcus jannaschii) (UniProt Q59072).
T2 sequence (chain, PLP covalently bound to the side chain of Lys234): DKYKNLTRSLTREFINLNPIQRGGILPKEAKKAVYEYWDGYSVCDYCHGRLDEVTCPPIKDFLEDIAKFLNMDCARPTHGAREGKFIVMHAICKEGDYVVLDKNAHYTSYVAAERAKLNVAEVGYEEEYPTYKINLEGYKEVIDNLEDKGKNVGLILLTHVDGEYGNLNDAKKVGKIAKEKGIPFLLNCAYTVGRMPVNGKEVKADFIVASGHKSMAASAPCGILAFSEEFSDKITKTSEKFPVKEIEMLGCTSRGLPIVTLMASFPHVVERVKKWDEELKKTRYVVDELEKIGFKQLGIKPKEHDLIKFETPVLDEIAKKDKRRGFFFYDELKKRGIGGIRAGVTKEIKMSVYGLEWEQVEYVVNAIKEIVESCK
The experiment can be described thus: crystal structure; SepCysE-SepCysS mixed with tRNA^Cys at a molar ratio of 1:1.2, protein 16 mg/ml; 0.1 M MES pH 5.0, 2.4 M ammonium sulfate; 2.6 Å; PDB 5X6B; both purified.

Experiment [3] concerns the target T2, Sep-tRNA:Cys-tRNA synthase (SepCysS), Methanocaldococcus jannaschii (Methanocaldococcus jannaschii). In words: negative stain electron microscopy; purified wild type and del_linker1 transsulfursome adsorbed on carbon-coated grids; 20 mM HEPES-KOH pH 8.0, 200 mM KCl, 5 mM MgCl2; uranyl formate; class averaging; both purified.

B1: SepCysE(ΔN-helix), N-helix deletion mutant of M. jannaschii SepCysE (domain or fragment, UniProt Q58876 25-213)
chain: IRVEKDDKKISYKDAKPGKIDVNEFKKAIYLLIEADDFLYKKAPKHELNEEEAKEFCKLIIKCQEHLNKILANFGFEFEEKEIDEGALYIVSNKKLFKKLKNKNPNLKVVCTEGMLDIEDMRAIGVPEKALEGLKKKVEIARKNVERFIEKYKPEKIFVVVEDDKDELLYLRAKNLYNAEKLDADEILD
In the case of B1, the binding result in experiment [1] is “no binding”.

B2: SepCysE (SepRS/SepCysS pathway enhancer), Methanocaldococcus jannaschii (natural protein)
chain: MRVEYSKDLIRKGISTISQLKKAKIRVEKDDKKISYKDAKPGKIDVNEFKKAIYLLIEADDFLYKKAPKHELNEEEAKEFCKLIIKCQEHLNKILANFGFEFEEKEIDEGALYIVSNKKLFKKLKNKNPNLKVVCTEGMLDIEDMRAIGVPEKALEGLKKKVEIARKNVERFIEKYKPEKIFVVVEDDKDELLYLRAKNLYNAEKLDADEILD
notes: SepCysE of Methanocaldococcus jannaschii; wild type
Turning to B2, the binding result in experiment [2] and in experiment [3] was “binds” each time.

B3: SepCysE(del_linker1) of M. jannaschii, 10 residues of linker1 truncated (natural protein, Methanocaldococcus jannaschii)
chain: MRVEYSKDLIRKGISTISQLKKAKSYKDAKPGKIDVNEFKKAIYLLIEADDFLYKKAPKHELNEEEAKEFCKLIIKCQEHLNKILANFGFEFEEKEIDEGALYIVSNKKLFKKLKNKNPNLKVVCTEGMLDIEDMRAIGVPEKALEGLKKKVEIARKNVERFIEKYKPEKIFVVVEDDKDELLYLRAKNLYNAEKLDADEILD
notes: source: E. coli B834(DE3) plus pRARE2, purified within the transsulfursome (same procedure as the wild type)
With B3, in experiment [3], the binding result is given as “binds”.
